In the supplement of paper PMC12819154, “High-throughput peptide-centric local stability assay extends protein–ligand identification to membrane proteins, tissues and bacteria” (Nature Structural & Molecular Biology, 2025):
The list shows a part of the results. Small differences around the control level are noise.

By UniProt entry, the sequences of proteins in these tests, tags left out. Where a name states a change or a piece, a line headed by the entry shows the natural chain unless it says otherwise.
UniProt Q8C6S9: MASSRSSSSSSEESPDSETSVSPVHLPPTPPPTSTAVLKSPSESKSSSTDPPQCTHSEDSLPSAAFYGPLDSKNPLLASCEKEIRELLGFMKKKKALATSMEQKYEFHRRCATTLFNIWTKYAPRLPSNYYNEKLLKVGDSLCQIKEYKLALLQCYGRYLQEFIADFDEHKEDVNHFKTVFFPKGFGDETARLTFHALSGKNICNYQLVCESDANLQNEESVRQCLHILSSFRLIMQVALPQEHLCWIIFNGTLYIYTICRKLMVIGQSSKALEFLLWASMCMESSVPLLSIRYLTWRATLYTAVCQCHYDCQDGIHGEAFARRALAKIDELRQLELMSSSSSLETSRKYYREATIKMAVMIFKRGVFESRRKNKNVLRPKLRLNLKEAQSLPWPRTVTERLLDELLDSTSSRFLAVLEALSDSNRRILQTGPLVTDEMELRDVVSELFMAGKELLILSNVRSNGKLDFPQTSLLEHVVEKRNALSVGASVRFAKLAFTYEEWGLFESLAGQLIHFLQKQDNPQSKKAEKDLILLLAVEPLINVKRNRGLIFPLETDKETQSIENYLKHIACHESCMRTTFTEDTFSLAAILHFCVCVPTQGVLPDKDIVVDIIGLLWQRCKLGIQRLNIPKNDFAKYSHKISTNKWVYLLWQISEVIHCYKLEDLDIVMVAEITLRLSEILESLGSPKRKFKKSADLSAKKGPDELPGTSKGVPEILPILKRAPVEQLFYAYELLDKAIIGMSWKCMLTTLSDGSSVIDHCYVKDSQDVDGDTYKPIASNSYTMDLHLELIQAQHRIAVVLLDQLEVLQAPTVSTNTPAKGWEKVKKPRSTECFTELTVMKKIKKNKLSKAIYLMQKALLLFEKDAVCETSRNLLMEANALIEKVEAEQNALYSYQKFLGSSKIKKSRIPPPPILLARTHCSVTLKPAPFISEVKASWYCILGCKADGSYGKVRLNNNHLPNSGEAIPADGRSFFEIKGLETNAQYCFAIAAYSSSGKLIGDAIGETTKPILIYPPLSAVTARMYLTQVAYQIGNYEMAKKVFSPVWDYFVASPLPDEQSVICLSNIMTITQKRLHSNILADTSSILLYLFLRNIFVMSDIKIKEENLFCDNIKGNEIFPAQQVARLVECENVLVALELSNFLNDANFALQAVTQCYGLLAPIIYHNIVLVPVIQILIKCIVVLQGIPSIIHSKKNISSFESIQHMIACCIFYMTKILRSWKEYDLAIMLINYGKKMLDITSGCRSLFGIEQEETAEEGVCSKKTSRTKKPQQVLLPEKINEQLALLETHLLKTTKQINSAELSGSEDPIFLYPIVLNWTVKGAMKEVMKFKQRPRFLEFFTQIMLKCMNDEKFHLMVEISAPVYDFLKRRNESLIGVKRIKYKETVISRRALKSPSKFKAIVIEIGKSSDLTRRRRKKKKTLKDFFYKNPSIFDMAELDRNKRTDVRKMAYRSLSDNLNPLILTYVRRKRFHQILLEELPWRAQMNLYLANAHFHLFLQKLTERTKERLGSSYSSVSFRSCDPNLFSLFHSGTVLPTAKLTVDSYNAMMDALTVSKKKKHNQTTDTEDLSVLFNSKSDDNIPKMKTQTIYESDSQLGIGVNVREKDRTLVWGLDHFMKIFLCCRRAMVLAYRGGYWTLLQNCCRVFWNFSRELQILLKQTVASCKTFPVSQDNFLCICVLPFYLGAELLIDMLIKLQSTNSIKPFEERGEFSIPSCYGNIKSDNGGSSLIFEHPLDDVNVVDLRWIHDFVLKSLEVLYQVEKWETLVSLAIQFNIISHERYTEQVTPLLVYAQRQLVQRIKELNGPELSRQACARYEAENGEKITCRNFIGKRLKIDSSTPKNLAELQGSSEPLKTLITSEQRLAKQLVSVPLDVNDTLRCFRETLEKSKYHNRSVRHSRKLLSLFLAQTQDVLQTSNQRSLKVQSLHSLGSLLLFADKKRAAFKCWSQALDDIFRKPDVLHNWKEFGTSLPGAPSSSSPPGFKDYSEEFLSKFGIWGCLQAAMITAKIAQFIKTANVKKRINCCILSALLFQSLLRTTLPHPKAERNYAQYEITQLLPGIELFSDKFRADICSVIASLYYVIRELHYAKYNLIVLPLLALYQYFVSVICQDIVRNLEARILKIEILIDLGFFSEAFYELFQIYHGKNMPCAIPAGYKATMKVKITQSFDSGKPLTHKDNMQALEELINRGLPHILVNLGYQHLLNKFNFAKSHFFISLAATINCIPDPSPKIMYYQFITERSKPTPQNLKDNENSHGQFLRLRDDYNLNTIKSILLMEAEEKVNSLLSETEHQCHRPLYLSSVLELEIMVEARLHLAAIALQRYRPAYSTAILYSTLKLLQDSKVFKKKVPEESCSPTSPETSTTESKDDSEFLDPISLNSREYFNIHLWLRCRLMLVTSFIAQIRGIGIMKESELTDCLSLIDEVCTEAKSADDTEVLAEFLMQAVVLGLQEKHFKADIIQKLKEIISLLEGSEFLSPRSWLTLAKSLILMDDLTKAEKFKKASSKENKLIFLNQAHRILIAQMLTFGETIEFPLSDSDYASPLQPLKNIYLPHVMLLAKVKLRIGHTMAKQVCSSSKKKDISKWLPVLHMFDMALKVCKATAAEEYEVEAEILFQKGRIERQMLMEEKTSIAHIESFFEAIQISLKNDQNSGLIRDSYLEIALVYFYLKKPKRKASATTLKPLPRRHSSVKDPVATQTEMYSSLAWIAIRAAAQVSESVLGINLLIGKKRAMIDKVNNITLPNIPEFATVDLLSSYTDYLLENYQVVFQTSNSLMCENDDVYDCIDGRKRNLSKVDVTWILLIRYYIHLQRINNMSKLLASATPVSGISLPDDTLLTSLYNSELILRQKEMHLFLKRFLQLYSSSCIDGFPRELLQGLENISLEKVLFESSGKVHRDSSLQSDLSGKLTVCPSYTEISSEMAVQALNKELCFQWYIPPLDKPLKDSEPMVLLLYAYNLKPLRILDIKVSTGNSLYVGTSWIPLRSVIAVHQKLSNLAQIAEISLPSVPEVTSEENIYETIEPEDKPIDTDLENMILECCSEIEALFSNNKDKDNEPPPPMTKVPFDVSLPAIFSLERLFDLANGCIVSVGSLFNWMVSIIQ
UniProt Q8BZ00: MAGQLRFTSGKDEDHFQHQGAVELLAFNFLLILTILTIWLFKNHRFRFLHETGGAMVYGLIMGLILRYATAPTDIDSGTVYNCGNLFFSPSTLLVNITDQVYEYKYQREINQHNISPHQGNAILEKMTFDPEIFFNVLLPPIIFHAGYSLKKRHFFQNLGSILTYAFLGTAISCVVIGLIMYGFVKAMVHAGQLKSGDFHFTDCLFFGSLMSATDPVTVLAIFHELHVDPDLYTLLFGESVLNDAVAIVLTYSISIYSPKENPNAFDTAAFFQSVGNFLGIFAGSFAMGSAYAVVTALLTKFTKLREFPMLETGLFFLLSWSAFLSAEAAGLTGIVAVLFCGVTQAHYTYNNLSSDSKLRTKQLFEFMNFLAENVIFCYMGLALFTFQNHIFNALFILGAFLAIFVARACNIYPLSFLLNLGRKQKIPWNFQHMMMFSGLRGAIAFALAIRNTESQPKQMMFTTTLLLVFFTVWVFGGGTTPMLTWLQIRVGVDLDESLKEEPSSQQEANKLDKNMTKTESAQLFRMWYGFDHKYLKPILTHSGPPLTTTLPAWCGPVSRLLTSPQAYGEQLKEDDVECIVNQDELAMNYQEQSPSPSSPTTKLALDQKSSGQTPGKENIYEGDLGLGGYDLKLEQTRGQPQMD
UniProt Q8BY71: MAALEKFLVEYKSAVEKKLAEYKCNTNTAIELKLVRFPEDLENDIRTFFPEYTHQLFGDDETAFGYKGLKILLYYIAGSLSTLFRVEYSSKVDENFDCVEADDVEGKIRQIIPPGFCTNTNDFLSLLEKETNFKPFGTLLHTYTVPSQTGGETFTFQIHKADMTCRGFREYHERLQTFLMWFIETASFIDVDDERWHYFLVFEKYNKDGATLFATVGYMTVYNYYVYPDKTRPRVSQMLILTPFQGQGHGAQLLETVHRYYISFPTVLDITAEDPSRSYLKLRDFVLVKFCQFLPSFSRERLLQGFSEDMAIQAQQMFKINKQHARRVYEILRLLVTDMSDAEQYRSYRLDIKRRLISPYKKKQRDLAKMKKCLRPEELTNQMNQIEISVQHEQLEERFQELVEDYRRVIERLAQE
UniProt Q8C3S2: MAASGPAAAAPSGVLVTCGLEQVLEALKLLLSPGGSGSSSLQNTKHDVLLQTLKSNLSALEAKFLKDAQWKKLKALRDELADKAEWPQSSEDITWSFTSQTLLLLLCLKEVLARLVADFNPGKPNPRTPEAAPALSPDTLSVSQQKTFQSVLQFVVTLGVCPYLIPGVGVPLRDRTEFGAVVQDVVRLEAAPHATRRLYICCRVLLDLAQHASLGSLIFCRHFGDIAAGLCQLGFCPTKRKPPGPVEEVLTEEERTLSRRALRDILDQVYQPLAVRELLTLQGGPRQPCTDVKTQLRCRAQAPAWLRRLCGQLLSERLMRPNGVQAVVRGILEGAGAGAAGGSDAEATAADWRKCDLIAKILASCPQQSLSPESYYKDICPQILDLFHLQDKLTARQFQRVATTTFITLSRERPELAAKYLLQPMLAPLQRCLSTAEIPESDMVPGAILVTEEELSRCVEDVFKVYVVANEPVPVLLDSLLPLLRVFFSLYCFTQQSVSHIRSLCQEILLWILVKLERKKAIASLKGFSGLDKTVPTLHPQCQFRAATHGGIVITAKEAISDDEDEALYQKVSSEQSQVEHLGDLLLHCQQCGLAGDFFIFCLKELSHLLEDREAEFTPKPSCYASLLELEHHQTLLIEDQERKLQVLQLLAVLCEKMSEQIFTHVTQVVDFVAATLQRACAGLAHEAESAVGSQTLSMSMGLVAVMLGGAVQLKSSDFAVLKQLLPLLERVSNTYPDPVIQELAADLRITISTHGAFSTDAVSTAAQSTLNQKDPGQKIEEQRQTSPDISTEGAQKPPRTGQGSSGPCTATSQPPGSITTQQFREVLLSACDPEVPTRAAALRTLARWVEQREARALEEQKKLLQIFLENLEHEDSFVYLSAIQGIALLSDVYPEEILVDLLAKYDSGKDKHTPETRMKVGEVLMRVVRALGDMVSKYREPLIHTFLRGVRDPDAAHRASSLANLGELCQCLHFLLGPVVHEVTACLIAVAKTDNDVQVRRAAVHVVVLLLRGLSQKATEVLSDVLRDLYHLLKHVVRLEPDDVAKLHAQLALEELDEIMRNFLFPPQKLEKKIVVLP
UniProt Q8BX02: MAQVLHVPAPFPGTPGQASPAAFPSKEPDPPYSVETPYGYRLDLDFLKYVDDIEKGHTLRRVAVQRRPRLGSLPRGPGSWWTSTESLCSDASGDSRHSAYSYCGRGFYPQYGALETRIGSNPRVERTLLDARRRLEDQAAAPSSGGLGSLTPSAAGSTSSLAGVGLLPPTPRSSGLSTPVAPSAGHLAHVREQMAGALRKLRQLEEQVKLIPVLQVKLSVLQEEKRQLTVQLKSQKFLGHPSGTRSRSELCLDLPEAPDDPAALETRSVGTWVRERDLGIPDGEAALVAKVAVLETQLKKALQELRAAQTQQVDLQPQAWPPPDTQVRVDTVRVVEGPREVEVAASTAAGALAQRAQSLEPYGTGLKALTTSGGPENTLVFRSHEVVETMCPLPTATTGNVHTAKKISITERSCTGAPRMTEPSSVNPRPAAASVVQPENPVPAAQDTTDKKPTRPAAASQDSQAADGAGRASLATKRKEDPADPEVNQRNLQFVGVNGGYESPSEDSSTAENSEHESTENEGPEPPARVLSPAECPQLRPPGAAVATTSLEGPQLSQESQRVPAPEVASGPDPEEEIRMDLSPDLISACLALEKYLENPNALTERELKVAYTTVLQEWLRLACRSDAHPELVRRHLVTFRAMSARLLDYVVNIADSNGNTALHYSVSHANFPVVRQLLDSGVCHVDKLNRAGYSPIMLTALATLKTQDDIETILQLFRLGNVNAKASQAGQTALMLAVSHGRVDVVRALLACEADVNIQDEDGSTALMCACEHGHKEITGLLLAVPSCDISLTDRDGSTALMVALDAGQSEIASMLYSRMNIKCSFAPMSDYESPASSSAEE

The targets below were run with CN[C@@H]1C[C@H]2O[C@@](C)([C@@H]1OC)n1c3ccccc3c3c4c(c5c6ccccc6n2c5c31)C(=O)NC4 [staurosporine] (assay: log2 fold change of tryptic peptide abundance, ligand vs vehicle (limited proteolysis) (log2 ratio); higher = more trypsin-susceptible (destabilized)). Details: ligand concentration: 20 uM; sample: mouse liver crude lysate; replicate design: treated separately.

Target | log2 fold change
UniProt Q8C6S9 (peptide sequence: SVIAVHQK, peptide start residue: 2990) | -0.329
UniProt Q8BZ00 (peptide sequence: MWYGFDHK, peptide start residue: 527) | 0.145
UniProt Q8BY71 (peptide sequence: FQELVEDYRR, peptide start residue: 399) | -0.0665
UniProt Q8C3S2 (peptide sequence: LMRPNGVQAVVR, peptide start residue: 318) | -0.463
UniProt Q8BX02 (peptide sequence: ASQAGQTALMLAVSHGR, peptide start residue: 727) | -0.591
